Reference: patent US20120245128A1, “RAPID DETECTION AND QUANTIFICATION OF MODIFICATION OF MEDICINAL COMPOUNDS AND DRUG RESISTANCE ACTIVITY” (The Board of Regents of the University of Texas System, priority 2011, published 2012)

System: β-lactamase
Experiment: five antibiotic mixture subjected to β-lactamase, monitored by SRM
Type: biochemical
Details: 5 antibiotic mixture; reaction time less than 5 minutes

Compound | hydrolysis by β-lactamase (SRM)
CC1(C)S[C@@H]2[C@H](NC(=O)[C@H](N)c3ccccc3)C(=O)N2[C@H]1C(=O)O [ampicillin] | completely hydrolyzed
O=C(N[C@H](CO)[C@H](O)c1ccc([N+](=O)[O-])cc1)C(Cl)Cl [chloramphenicol] | remained unaffected
Cc1onc(-c2ccccc2Cl)c1C(=O)N[C@@H]1C(=O)N2[C@@H]1SC(C)(C)[C@@H]2C(=O)O [cloxacillin] | remained unaffected
CCN1CCN(C(=O)N[C@@H](C(=O)N[C@@H]2C(=O)N3[C@@H]2SC(C)(C)[C@@H]3C(=O)O)c2ccccc2)C(=O)C1=O [piperacillin] | completely hydrolyzed
CC1=C(C(=O)O)N2C(=O)[C@@H](NC(=O)[C@H](N)c3ccccc3)[C@H]2SC1 [cephalexin] | completely hydrolyzed
